Assay results taken from US20030125523A1 (VEGENICS, published 2003).
Results are given in words; binding and its absence hold for the method and conditions named. Some entries that bind do so weakly or less than the wild type. For some assays here: Where a sequence is shown, tags or fusion partners need not be part of it.

The chains behind the UniProt entries cited, without tags or fusion partners. Residues count along the entry.
UniProt O14786, residues 22-923: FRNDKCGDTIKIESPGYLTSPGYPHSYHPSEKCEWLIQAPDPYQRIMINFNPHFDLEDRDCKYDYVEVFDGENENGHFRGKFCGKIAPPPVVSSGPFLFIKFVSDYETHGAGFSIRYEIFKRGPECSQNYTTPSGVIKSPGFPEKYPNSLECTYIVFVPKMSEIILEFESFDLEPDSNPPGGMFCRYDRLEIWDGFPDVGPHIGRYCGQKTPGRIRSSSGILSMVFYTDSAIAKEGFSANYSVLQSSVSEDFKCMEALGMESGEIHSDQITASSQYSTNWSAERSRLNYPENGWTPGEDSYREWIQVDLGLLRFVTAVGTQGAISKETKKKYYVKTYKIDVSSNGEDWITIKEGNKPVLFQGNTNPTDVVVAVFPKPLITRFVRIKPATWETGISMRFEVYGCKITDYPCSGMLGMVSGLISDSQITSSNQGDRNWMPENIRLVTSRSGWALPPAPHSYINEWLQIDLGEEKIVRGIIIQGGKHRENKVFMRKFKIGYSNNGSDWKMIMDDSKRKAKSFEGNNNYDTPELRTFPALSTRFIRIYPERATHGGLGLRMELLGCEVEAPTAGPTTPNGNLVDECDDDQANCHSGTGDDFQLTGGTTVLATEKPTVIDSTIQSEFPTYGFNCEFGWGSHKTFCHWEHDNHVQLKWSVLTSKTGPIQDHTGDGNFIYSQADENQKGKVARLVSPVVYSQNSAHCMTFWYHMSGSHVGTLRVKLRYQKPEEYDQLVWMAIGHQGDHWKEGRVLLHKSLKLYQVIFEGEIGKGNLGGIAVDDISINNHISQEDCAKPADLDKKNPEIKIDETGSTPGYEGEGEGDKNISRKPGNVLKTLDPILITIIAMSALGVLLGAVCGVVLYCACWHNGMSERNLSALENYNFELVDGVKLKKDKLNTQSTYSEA

B1: mVEGF164 (ligand, mouse, UniProt Q00731-2 27-190, looked up)
chain: APTTEGEQKSHEVIKFMDVYQRSYCRPIETLVDIFQEYPDEIEYIFKPSCVPLMRCAGCCNDEALECVPTSESNITMQIMRIKPHQSQHIGEMSFLQHSRCECRPKKDRTKPENHCEPCSERRKHLFVQDPQTCKCSCKNTDSRCKARQLELNERTCRCDKPRR
B2: PlGF-2 (ligand, UniProt P49763-3 19-170, looked up)
chain: LPAVPPQQWALSAGNGSSEVEVVPFQEVWGRSYCRALERLVDVVSEYPSEVEHMFSPSCVSLLRCTGCCGDENLHCVPVETANVTMQLLKIRSGDRPSYVELTFSQHVRCECRPLREKMKPERRRPKGRGKRRREKQRPTDCHLCGDAVPRR

What was measured:
[1] = molecular target: NP-1 expressed on PAE-NP-1 cells (UniProt O14786); test: competition of 125I-hVEGF165 (1 ng/ml) binding to PAE-NP-1 cells
[2] = molecular target: T1, soluble Neuropilin-1-Ig fusion protein (extracellular domain of mouse NP-1 fused to the human IgG Fc-part) (mouse; human) (UniProt P97333); test: precipitation of 35S-labelled growth factor from conditioned medium with NP-1-Ig on protein A sepharose, SDS-PAGE
T1 sequence (looked up): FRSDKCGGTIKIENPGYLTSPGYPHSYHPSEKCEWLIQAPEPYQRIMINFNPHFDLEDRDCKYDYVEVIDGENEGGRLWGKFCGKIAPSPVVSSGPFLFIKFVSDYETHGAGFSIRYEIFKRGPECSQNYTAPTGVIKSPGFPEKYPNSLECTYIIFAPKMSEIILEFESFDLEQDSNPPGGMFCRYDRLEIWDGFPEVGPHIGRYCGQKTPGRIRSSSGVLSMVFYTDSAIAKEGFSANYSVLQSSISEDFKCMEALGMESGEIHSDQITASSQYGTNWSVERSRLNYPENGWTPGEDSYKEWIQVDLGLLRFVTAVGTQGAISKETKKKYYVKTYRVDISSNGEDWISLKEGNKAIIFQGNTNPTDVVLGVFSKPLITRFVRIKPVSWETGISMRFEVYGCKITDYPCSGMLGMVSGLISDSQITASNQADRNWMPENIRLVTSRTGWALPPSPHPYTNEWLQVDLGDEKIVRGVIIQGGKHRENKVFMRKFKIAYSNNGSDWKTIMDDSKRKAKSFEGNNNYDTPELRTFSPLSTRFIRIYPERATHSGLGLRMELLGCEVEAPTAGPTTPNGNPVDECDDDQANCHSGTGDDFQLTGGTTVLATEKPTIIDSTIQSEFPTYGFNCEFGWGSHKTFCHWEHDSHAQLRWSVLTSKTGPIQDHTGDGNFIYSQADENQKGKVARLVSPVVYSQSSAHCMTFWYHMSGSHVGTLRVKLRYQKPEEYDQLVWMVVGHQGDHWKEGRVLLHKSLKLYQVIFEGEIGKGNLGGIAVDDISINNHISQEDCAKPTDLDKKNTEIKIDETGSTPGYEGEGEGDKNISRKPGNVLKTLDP

Row | Binder | binding [1] | binding [2]
1 | B1 | binds | –
2 | B2 | – | binds
